Assay results: PubChem BioAssay AID1671190 (National Center for Advancing Translational Sciences (NCATS), 2021)
“And” between values parts separate entries of the source, which are not always exact repeats. Equal entries are not always repeated. The whole screen tested about 580,000 compounds, of which about 6,100 (1.1%) were called active. The shares of active, inactive and inconclusive entries below differ from those in the screen. Calls follow the shape of the dose curve; as a rule, active = well fitted inhibition curve with a large enough effect; inconclusive = small, poorly fitted or top-dose-only effect, or another doubt; inactive = no such curve, though single readings can be large or run the other way. A potency beside an inconclusive call is a rough fit, not a confirmed value.

The chains behind the UniProt entries cited, without tags or fusion partners. Where a name states a change or a piece, a line headed by the entry shows the natural chain unless it says otherwise.
UniProt P18054: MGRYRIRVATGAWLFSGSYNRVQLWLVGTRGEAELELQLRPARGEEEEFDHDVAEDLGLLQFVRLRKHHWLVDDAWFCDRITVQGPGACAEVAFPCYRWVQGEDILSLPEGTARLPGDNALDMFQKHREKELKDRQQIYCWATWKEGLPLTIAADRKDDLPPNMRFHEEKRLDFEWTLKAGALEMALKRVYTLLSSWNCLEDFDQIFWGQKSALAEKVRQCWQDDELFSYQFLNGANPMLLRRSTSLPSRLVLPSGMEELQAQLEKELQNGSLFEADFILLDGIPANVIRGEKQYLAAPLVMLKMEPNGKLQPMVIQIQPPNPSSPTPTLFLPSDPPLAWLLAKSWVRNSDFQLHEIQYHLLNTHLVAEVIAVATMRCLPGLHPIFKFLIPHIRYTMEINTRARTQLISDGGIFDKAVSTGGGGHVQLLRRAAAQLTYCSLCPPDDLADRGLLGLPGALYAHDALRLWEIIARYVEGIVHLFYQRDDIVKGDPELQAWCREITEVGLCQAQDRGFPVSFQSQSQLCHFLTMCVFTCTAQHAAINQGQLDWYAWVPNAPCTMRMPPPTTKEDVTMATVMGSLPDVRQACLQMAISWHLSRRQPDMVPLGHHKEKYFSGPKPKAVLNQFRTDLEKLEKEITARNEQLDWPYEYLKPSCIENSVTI

target: Polyunsaturated fatty acid lipoxygenase ALOX12 (Homo sapiens) (UniProt P18054); assay: Primary qHTS assay for inhibitors of human arachidonate 12S-lipoxygenase (ALOX12): Round 2; conditions: purified 12hLO, xylenol orange hydroperoxide absorbance; activity change, negative = inhibition: at 108 µM (top of the series) unless noted
Method in brief: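 Hydroperoxide product was detected by ferrous iron/xylenol orange as the 573 to 405 nm absorbance ratio. Arachidonic acid at 40 uM (final) was turned over for 30 min at room temperature by 150 nM human 12hLO, pH 7.0 Hepes buffer, after 15 min compound preincubation.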
% is scaled to controls: 0 for no effect and ±100 for the full control effect; potency is read from the fitted curve at half-maximal effect.

SMILES | Potency | activity change, negative = inhibition
O=S(=O)(c1ccc2c(c1)OCCO2)c1nc(-c2ccco2)oc1NCCCn1ccnc1 | inconclusive: 39.8 µM [inhibitor, partial curve, poor fit] | 
CC1(C)CCCC(C)(C#CCN(Cc2ccccc2)Cc2ccccc2)O1 (centres undefined) | inconclusive: 25.1 µM [inhibitor, partial curve] | 
O=[N+]([O-])c1ccc(N/N=C/c2ccc(Br)cc2)cc1 | inconclusive: 50.1 µM [inhibitor, partial curve, poor fit] | 
Cc1ccccc1NC(=O)CSc1ccc(N2CCC(C(=O)N3CCCCC3)CC2)nn1 |  | inactive: -0.301%
COC(=O)c1ccc(/C=C/c2nc3ccccc3c(=O)[nH]2)cc1 | inconclusive: 56.2 µM [inhibitor, partial curve, poor fit] | 
CN1c2ccsc2C(O)=C(C(=S)Nc2ccccc2)S1(=O)=O |  | inactive: -3.29%
Cc1cc(C)c2c(N)c(C(=O)c3ccc(Br)cc3)oc2n1 | inconclusive: 39.8 µM [inhibitor, partial curve, poor fit] | 
CCN1c2ccccc2NC2C1C(C(C)=O)C(=O)N2c1ccc(Cl)cc1 (centres undefined) | inconclusive: 44.7 µM [inhibitor, partial curve, poor fit] | 
Cc1cc(C)c2sc(N(CCCN(C)C)C(=O)CN3C(=O)c4ccccc4C3=O)nc2c1 |  | inactive: 60.3%
O=C(Nc1cc(-c2nc3ncccc3o2)ccc1Cl)c1cccs1 |  | inactive: 5.47%
CCOC(=O)C1CCN(C(=O)COC(=O)c2cn(-c3ccccc3)nc2-c2ccccc2)CC1 | inconclusive: 0.794 µM [inhibitor, full curve, poor fit] | 
N#Cc1c(N)sc2c1CCN(C(=O)OCc1ccccc1)C2 | inconclusive: 35.5 µM [inhibitor, partial curve, poor fit] | 
Fc1ccc(CCNC(=S)Nc2ccc(F)cc2)cc1 | inconclusive: 44.7 µM [inhibitor, partial curve, poor fit] | 
Cc1ccc(N(CC(=O)N2CCN(C/C=C/c3ccccc3)CC2)S(C)(=O)=O)cc1 | inconclusive: 50.1 µM [inhibitor, partial curve, poor fit] | 
Cc1ccc(S(=O)(=O)Nc2cccc(NC(N)=O)c2)cc1Cl | inconclusive: 44.7 µM [inhibitor, partial curve, poor fit] | 
O=[N+]([O-])c1cccc2c(S(=O)(=O)N3CCCCC3)cccc12 |  | inactive: -2.16%
O=S(=O)(CCCSc1nc2ccccc2s1)c1ccccc1 |  | inactive: 37.8%
C=C(C)Cn1c(CCn2c3ccccc3c3ccccc32)n[nH]c1=S | inconclusive: 44.7 µM [inhibitor, partial curve] | 
O=C(/C=C/c1ccc(O)c(O)c1)O[C@@H]1C[C@@](OC(=O)/C=C/c2ccc(O)c(O)c2)(C(=O)O)C[C@@H](O)[C@@H]1O | inconclusive: 3.55 µM [inhibitor, full curve, poor fit] | 
CN1CCCC2(CCN(C(=O)c3cccn3C)CC2)C1 | inconclusive: 31.6 µM [inhibitor, single point] | 
Cc1ccc(CNC(=O)c2cc(-c3ccncc3)nc3ccccc23)cc1 | inconclusive: 50.1 µM [inhibitor, single point] | 
CCOC(=O)N1CCc2c(sc3c2c(=O)n(Cc2ccccc2)c(=O)n3CC(=O)Nc2cccc(C)c2)C1 | inconclusive: 112 µM [inhibitor, partial curve, poor fit] | 

Exported as tab-separated lines: 3 of the compounds above
SMILES	Potency	activity change, negative = inhibition
CN1c2ccsc2C(O)=C(C(=S)Nc2ccccc2)S1(=O)=O		inactive: -3.29%
Cc1cc(C)c2c(N)c(C(=O)c3ccc(Br)cc3)oc2n1	inconclusive: 39.8 µM [inhibitor, partial curve, poor fit]	
CCN1c2ccccc2NC2C1C(C(C)=O)C(=O)N2c1ccc(Cl)cc1 (centres undefined)	inconclusive: 44.7 µM [inhibitor, partial curve, poor fit]	

The list goes on.

SMILES | Potency | activity change, negative = inhibition
c1cc(-c2nc(-c3ccc(OC4CNC4)cc3)no2)ccn1 | inconclusive: 7.08 µM [inhibitor, full curve, poor fit] | 
O=C1COc2ccc(C(=O)COC(=O)c3cc(Cl)ccc3Cl)cc2N1 | inconclusive: 31.6 µM [inhibitor, single point] | 
CCOC(=O)CC1(N)CCCCC1 | inconclusive: 22.4 µM [inhibitor, full curve] | 
Cn1c(=O)n(C)c2cc(/C=N/NC(N)=S)ccc21 | inconclusive: 2.82 µM [inhibitor, full curve] | 
COc1ccccc1NC(=O)COC(=O)c1ccc2ccccc2n1 | inconclusive: 31.6 µM [inhibitor, partial curve, poor fit] and inconclusive: 50.1 µM [inhibitor, partial curve, poor fit] | 
CC(C)(CNC(=S)Nc1ccc(SC(F)F)cc1)N1CCCCC1 | inconclusive: 1.58 µM [inhibitor, full curve, poor fit] | 
COc1ccc(Cc2nc3ccc(C(=O)NC(C)c4cn(C)nc4C)cc3o2)cc1 (centres undefined) |  | inactive: -22.6%
CC(=O)N1CCN(C2=NC(=O)/C(=C/c3ccc(OS(=O)(=O)c4ccccc4)cc3)S2)CC1 |  | inactive: 22.9%
COc1cc2cnc(C3=CCCCC3)cc2cc1OC | inconclusive: 50.1 µM [inhibitor, partial curve, poor fit] | 
CCOc1ccccc1N1CCN(C/C=C/c2ccc(N(C)C)cc2)CC1 | inconclusive: 7.08 µM [inhibitor, full curve] | 
COc1ccc(Cc2nc3c4c(C)c(C)n(-c5cc(C)ccn5)c4ncn3n2)cc1OC | inconclusive: 126 µM [inhibitor, single point] | 
COC(=O)COc1ccc2c(c1)O/C(=C\c1ccco1)C2=O | inconclusive: 44.7 µM [inhibitor, partial curve] | 
CN1CCCC2(Cc3ccccc3CN(C(=O)Cc3cccc(Cl)c3)C2)C1 (centres undefined) |  | inactive: -4.32% [at 6.33 µM]
COc1ccc(Nc2nc(Nc3ccc(OC)cc3OC)nc(N3CCN(C)CC3)n2)c(OC)c1 | inconclusive: 50.1 µM [inhibitor, partial curve, poor fit] | 
COc1cccc(CC(=O)N2CCC3(CC2)CN(C2CCC2)CC3CO)c1 (centres undefined) |  | inactive: 34.4%
COc1cccc(-n2c(C)cc(/C=C3\C(=N)N4N=C(CC(=O)N5CCOCC5)SC4=NC3=O)c2C)c1 |  | inactive: -1.96%
COc1ccc2sc(-c3ccccc3OC)c(-c3ccc(OCCN4CCCC4)cc3)c2c1 | inconclusive: 50.1 µM [inhibitor, partial curve, poor fit] | 
O=C(c1ccc(Cl)cc1)c1c[nH]c(C(=O)C(Cl)(Cl)Cl)c1 | inconclusive: 3.98 µM [inhibitor, full curve, poor fit] | 
Cc1cc(C(=O)Nc2ccccc2)c2ccccc2n1 | inactive and inconclusive: 141 µM [inhibitor, single point] | 
CCc1cccc(CC)c1NC(=O)C(C)Sc1ccccc1 (centres undefined) |  | inactive: -41.3%
COc1ccc(-c2cc(N3CCCC(NC(=O)c4c[nH]c5ccccc45)C3)n[nH]2)cc1 (centres undefined) |  | inactive: 13.4%
CN(C)CC1CCC/C(=C\c2ccc(OC(=O)c3ccc(Cl)cc3)cc2)C1=O (centres undefined) | active: 25.1 µM | 

Of the compounds above, two have a nitro group on carbon:
SMILES | Potency | activity change, negative = inhibition
O=[N+]([O-])c1ccc(N/N=C/c2ccc(Br)cc2)cc1 | inconclusive: 50.1 µM [inhibitor, partial curve, poor fit] | 
O=[N+]([O-])c1cccc2c(S(=O)(=O)N3CCCCC3)cccc12 |  | inactive: -2.16%

Next part:

SMILES | Potency | activity change, negative = inhibition
CC1Cc2ccccc2N1CC(=O)Nc1ccc(N2CCOCC2)cc1 (centres undefined) |  | inactive: -4.13%
CCN1C(=O)[C@H]2[C@@H](c3ccc(-c4cccc(Cl)c4)c(OC)c3)N3CCC[C@@]3(C(=O)OC)[C@H]2C1=O | active: 50.1 µM | 
O=C(NCc1cccs1)c1cc(-c2ccncc2)nc2ccccc12 |  | inactive: 1.82%
COc1ccccc1C(=O)Nc1c(C(=O)N2CCN(c3ccccc3F)CC2)oc2ccccc12 |  | inactive: -12.8%
CN1CCC(Nc2nccc(C3(c4ccccc4Cl)CCNCC3)n2)CC1 | inconclusive: 15.8 µM [inhibitor, full curve] | 
Nc1nccnc1C(=O)NCCSCc1ccsc1 | inconclusive: 35.5 µM [inhibitor, partial curve, poor fit] | 
O=[N+]([O-])c1ccc(S(=O)(=O)N(CCCN2CCOCC2)Cc2cccs2)cc1 | inconclusive: 2.82 µM [inhibitor, full curve, poor fit] | 
Cc1ccc(C)c(N2CCN(C(=O)c3ccc(CS(=O)c4ccccc4)o3)CC2)c1 (centres undefined) | inconclusive: 141 µM [inhibitor, partial curve, poor fit] | 
CCC(=O)N1c2ccccc2C(N(C(=O)CC)c2ccccc2)CC1C (centres undefined) | inconclusive: 56.2 µM [inhibitor, partial curve, poor fit] | 
COc1cc(/C=C(\C#N)c2nc3ccccc3[nH]2)ccc1O | inconclusive: 50.1 µM [inhibitor, partial curve, poor fit] and inconclusive: 89.1 µM [inhibitor, partial curve, poor fit] | 
OC(c1cccc(Cl)c1)c1ncc(-c2ccc(Oc3ccccc3)cc2)[nH]1 (centres undefined) | inconclusive: 39.8 µM [inhibitor, partial curve, poor fit] | 
Cc1ccc(S(=O)(=O)N2CCN(Cc3cccc4cccnc34)CC2)cc1 |  | inactive: 2.66%
Cc1ccc(NC(=O)CSCc2cc(=O)n3ccsc3n2)cc1C |  | inactive: -11.7%
COc1ccc(C(=O)OCc2ccc(Br)cc2)cc1OC |  | inactive: 22.7%
COC(=O)c1ccc(/C=C(\C#N)c2nc3ccccc3s2)cc1 | inconclusive: 4.47 µM [inhibitor, full curve, poor fit] | 
CCCCC(=O)NC(c1ccc(Cl)cc1Cl)c1ccc2cccnc2c1O (centres undefined) |  | inactive: 28.9%
CCc1ccc(NC(=O)C(C)Sc2nc(-c3ccco3)c(C#N)c(=O)[nH]2)cc1 (centres undefined) | inconclusive: 17.8 µM [inhibitor, full curve, poor fit] | 
CN(C)CCCNc1cc(-c2ccccc2)nc2cc(-c3cccc(F)c3)nn12 | inconclusive: 44.7 µM [inhibitor, partial curve, poor fit] | 
Fc1ccc(/C=N/Nc2cccc(Cl)c2)cc1F | active: 3.98 µM | 
CC(=O)N1CCN(c2ccccc2NC(=S)NC(=O)c2cc3ccccc3o2)CC1 | inconclusive: 1.26 µM [inhibitor, full curve, poor fit] | 
